Our source for the log2 fold change values is the supplement of paper PMC10849652.

Chains of the proteins cited; added tags and fusions are not shown. Lines headed by an entry give the natural chain unless they say otherwise; changes in a name come on top.
UniProt P30043: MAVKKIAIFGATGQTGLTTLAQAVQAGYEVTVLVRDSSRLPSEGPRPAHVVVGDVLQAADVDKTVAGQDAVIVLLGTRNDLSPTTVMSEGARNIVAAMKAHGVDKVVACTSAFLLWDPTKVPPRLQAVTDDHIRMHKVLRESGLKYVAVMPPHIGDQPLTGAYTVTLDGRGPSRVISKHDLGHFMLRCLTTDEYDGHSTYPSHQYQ
UniProt P53004: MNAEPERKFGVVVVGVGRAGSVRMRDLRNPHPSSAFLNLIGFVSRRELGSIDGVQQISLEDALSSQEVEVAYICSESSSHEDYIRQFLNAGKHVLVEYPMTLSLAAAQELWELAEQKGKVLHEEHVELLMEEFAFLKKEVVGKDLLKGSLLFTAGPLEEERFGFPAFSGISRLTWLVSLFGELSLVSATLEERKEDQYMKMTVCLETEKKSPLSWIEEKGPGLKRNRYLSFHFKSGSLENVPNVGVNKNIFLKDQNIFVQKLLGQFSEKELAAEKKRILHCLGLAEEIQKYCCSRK
UniProt O95429: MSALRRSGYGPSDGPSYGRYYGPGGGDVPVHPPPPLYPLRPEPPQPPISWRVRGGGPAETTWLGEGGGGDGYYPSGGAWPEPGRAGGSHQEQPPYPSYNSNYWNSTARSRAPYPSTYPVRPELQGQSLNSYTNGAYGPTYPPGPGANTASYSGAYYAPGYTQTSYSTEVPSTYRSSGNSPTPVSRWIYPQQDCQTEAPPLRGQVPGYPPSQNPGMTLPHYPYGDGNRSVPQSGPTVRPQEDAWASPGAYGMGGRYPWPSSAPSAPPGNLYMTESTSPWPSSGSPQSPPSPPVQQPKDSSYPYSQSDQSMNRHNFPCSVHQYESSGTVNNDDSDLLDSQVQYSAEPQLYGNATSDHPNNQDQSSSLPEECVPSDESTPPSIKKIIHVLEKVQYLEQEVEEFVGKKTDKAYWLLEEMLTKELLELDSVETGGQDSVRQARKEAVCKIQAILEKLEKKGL
UniProt O75531: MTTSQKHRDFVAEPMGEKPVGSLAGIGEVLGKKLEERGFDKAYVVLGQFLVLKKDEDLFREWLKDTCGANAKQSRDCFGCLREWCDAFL
UniProt Q9UIG0: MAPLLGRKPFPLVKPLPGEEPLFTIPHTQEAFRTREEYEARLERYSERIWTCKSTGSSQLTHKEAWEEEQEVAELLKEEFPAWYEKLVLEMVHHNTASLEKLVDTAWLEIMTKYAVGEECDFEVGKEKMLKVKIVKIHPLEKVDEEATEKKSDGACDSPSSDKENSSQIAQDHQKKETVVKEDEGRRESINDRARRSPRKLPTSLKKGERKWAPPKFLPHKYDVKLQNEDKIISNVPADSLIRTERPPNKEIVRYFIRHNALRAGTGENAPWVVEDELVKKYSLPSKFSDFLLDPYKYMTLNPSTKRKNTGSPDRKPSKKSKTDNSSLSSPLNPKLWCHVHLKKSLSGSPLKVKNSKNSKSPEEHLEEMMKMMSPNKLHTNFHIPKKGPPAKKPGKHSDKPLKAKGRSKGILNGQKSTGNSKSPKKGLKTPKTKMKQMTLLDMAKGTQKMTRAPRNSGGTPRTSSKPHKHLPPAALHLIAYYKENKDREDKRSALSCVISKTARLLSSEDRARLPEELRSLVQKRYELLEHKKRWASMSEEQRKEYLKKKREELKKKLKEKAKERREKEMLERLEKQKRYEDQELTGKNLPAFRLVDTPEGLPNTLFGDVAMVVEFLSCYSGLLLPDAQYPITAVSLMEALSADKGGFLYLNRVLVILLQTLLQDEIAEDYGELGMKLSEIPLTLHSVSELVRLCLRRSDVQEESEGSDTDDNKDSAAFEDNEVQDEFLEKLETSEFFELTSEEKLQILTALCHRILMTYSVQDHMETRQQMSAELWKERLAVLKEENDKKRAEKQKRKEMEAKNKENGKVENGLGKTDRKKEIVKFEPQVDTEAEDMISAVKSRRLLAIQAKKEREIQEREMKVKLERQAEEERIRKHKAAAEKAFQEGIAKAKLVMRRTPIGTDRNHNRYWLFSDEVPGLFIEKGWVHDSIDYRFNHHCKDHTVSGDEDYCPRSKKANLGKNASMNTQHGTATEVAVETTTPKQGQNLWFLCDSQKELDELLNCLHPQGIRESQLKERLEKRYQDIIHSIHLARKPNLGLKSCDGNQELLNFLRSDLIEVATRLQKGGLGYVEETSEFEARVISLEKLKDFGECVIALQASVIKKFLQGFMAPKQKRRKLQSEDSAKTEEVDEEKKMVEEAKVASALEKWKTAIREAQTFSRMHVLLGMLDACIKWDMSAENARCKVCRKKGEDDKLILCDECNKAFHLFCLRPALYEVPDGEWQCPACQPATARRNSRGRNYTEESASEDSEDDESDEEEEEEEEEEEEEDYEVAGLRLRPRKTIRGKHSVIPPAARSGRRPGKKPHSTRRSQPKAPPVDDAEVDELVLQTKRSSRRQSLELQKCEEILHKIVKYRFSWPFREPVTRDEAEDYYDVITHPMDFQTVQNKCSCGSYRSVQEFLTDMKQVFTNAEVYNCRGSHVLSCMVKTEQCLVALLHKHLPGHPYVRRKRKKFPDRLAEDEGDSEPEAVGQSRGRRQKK
UniProt P46736, whole entry, looked up: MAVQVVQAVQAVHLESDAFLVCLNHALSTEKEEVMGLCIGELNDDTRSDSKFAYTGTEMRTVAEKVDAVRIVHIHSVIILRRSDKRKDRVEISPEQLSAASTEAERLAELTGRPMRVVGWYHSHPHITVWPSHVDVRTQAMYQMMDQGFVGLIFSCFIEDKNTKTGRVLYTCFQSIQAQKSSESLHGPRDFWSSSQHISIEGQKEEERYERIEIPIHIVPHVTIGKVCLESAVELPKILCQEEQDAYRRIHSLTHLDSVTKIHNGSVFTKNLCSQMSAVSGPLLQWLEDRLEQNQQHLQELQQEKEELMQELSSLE
UniProt Q8WUW1: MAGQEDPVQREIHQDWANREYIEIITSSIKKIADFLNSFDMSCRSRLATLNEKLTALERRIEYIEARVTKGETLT
UniProt Q9UHQ4: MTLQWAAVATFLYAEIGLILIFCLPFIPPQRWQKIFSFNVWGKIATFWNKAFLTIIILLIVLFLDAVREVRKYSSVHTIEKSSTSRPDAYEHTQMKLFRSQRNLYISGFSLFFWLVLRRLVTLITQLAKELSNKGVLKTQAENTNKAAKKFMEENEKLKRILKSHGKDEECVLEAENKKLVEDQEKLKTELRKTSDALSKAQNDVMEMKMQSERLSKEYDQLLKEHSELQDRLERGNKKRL
UniProt Q92560: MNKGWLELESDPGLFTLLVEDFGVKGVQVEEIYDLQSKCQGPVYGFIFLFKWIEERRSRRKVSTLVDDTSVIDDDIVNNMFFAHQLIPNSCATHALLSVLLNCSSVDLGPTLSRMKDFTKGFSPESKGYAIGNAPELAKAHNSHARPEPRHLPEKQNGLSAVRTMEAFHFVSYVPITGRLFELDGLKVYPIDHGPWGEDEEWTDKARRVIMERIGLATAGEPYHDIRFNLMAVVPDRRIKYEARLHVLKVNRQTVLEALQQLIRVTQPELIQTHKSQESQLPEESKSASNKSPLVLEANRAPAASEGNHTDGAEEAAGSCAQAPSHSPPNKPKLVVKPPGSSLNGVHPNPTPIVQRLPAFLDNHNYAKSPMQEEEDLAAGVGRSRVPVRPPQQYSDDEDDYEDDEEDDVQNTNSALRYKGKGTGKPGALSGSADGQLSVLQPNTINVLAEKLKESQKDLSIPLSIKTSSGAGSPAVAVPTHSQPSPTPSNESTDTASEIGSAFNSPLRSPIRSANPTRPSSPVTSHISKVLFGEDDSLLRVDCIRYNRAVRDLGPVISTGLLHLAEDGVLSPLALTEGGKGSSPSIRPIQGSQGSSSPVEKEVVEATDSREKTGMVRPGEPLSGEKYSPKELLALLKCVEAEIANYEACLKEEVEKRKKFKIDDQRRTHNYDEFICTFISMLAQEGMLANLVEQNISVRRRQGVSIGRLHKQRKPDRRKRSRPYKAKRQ
UniProt P11274: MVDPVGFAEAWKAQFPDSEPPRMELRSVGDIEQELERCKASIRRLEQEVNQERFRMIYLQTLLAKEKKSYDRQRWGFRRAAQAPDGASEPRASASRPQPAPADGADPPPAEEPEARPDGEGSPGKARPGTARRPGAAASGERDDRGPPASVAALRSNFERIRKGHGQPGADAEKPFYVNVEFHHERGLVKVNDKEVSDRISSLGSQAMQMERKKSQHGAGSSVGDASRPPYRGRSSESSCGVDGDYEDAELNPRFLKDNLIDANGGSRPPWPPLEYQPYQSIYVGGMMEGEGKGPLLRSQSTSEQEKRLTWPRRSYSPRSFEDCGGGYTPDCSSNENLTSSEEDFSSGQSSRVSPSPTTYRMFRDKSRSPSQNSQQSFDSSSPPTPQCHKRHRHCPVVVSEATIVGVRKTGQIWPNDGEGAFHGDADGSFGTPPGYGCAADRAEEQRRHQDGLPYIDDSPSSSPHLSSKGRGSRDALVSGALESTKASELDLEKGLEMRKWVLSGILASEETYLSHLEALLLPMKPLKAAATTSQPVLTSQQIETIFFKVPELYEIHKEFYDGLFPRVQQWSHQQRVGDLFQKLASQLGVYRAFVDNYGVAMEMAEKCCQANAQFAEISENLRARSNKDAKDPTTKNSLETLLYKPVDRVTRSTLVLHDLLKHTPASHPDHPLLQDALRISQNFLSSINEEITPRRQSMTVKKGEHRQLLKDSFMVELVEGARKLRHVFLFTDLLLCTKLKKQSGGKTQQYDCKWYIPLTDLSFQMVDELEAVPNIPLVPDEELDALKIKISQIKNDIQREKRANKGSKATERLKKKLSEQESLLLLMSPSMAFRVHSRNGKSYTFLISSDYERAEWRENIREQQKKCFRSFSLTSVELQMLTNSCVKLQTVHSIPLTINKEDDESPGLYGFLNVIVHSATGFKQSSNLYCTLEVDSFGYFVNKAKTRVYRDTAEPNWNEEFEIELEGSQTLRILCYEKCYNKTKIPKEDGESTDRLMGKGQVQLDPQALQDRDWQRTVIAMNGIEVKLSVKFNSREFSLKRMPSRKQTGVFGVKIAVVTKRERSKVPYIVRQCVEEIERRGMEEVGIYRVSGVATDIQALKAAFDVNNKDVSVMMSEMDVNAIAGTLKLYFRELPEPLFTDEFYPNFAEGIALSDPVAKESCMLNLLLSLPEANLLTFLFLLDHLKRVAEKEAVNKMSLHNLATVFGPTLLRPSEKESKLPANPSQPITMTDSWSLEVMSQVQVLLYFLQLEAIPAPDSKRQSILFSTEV
UniProt Q8TDN6: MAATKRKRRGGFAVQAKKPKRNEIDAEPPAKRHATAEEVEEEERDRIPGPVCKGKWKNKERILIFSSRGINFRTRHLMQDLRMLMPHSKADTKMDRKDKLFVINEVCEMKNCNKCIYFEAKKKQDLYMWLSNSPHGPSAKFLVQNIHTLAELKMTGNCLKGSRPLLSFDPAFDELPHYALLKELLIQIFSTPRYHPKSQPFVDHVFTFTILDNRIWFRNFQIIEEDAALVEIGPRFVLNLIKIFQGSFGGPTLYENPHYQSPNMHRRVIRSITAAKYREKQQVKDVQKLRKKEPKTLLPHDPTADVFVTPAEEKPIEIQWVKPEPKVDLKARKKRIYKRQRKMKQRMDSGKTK
UniProt Q06187: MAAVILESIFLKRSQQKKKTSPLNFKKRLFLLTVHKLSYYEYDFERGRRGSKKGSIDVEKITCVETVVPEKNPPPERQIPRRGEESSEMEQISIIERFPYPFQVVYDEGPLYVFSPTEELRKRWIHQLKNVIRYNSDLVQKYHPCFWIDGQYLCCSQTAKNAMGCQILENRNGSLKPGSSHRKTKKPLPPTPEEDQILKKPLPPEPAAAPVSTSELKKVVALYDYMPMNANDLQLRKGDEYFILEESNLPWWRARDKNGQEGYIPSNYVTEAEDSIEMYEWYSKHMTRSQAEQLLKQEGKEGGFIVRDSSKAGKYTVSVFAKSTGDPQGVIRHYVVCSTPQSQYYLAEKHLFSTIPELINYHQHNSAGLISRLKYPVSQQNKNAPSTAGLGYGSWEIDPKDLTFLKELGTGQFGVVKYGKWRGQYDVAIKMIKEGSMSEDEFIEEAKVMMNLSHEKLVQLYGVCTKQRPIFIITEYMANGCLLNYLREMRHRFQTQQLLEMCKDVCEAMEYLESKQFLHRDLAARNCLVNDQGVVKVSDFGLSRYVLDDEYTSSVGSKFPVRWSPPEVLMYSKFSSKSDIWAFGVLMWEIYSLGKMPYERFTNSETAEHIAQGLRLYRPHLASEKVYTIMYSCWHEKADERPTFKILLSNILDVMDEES
UniProt O15155: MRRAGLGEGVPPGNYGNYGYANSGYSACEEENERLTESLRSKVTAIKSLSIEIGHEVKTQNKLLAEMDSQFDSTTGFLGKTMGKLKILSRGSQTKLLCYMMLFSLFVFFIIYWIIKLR
UniProt P55957: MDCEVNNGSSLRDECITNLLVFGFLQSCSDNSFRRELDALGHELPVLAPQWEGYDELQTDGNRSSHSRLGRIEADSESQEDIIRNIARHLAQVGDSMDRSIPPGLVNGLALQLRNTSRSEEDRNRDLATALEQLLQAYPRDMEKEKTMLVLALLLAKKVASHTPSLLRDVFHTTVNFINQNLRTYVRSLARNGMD

Common to all, as to test: log2 fold change, soluble protein after heating vs DMSO (PISA); higher = thermal stabilisation; K562 lysate, 10 uM; active = over 0.2 and 3.5 SD of the protein, either way, in both replicates (recomputed)
Compound in test [1]: C1=CC=C(C=C1)[C@H](COC2=CC3=C(C=C2)NC(=O)N3)NC(=O)C4=CC=CN(C4=O)CC5=CC(=C(C=C5)F)F
In short, it runs like this:
(§1)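 K562 pellets were dounce-homogenised in PBS pH 7.4 with 1 mM MgCl2, and the crude extract at 1 mg/mL protein was treated with 10 μM compound for 30 min. Aliquots were heated for 3 min across 48°C-58°C, pooled, and brought to 0.5% NP-40 at 4°C; soluble protein was the supernatant after 21,000xg for 90 min. Soluble protein was quantified by TMTpro 16plex LC-MS/MS with channel sums equalised, and reported as log2 fold change in thermal stability against DMSO controls, with values from duplicates.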

Compound in test [2]: CC1=C(SC2=C1C(=N[C@H](C3=NN=C(N32)C)CC(=O)N)C4=CC=C(C=C4)Cl)C
Put shortly:
as §1

Compound in test [3]: CC1=C2C(=CC=C1)N=C(N(C2=O)C3=CC=CC=C3C)CN4C=NC5=C(N=CN=C54)N
In short, it runs like this: as §1

Compound in test [4]: Cc1sc2c(c1C)C(c1ccc(Cl)cc1)=N[C@@H](CC(=O)OC(C)(C)C)c1nnc(C)n1-2
In short, it runs like this:
as §1

Compound in test [5]: c1ccc([C@@H]2C[C@H]2NC2CCNCC2)cc1
Put shortly: as §1

This is one part of the list.

As to BLVRB (UniProt P30043), the log2 fold change was inactive: 0.01 in test [1]; inactive: -0.052 in test [2]; inactive: 0.025 in test [3]; inactive: 0.022 in test [4]; inactive: -0.011 in test [5].
As for BBC3 (UniProt Q9BXH1), the log2 fold change was inactive: -0.034 in test [1]; inactive: 0.087 in test [2]; inactive: 0.07 in test [3]; inactive: -0.126 in test [4]; inactive: -0.065 in test [5].
In the case of BLVRA (UniProt P53004), the log2 fold change is inactive: -0.033 in test [1]; inactive: 0.034 in test [2]; inactive: -0.026 in test [3]; inactive: 0.009 in test [4]; inactive: 0.015 in test [5].
The like results for BAG4 (UniProt O95429) were, in that order, inactive: 0.059, inactive: 0.021, inactive: -0.023, inactive: 0.03 and inactive: 0.003.
As to BRF1 (UniProt Q92994), the log2 fold change in test [1] was inactive: 0.059; in test [2], inactive: -0.049; in test [3] it was inactive: 0.086; in test [4], inactive: 0.062; in test [5], inactive: 0.005.
BPTF (UniProt Q12830): the log2 fold change is inactive: 0.034 in test [1]; inactive: -0.017 in test [2]; inactive: -0.02 in test [3]; inactive: -0.076 in test [4]; inactive: -0.009 in test [5].
Turning to BORCS6 (UniProt Q96GS4), the log2 fold change is inactive: -0.112 in test [1]; inactive: 0.08 in test [2]; inactive: 0.076 in test [3]; inactive: -0.01 in test [4]; inactive: 0.007 in test [5].
Take BANF1 (UniProt O75531): the log2 fold change in test [1] was inactive: 0.022; in test [2], inactive: -0.024; in test [3], inactive: 0.167; in test [4] it was inactive: -0.014; in test [5], inactive: 0.044.
Take BRD4 (UniProt O60885): the log2 fold change in test [1] is inactive: 0.022; in test [2], active: 0.868; in test [3], inactive: 0.003; in test [4] it was active: 0.415; in test [5], inactive: -0.015.
The like results for BAZ1B (UniProt Q9UIG0) were, in that order, inactive: 0.052, inactive: -0.098, inactive: -0.055, inactive: -0.015 and inactive: 0.058.
Consider BAIAP2L1 (UniProt Q9UHR4), for which the log2 fold change in test [1] is inactive: 0.05; in test [2] it was inactive: -0.031; in test [3] it was inactive: -0.029; in test [4], inactive: 0.008; in test [5] it was inactive: -0.009.
Consider BRCC3 (UniProt P46736), for which the log2 fold change in test [1] is inactive: 0.002; in test [2], inactive: 0.004; in test [3] it was inactive: -0.036; in test [4] it was inactive: 0.018; in test [5], inactive: 0.004.
Regarding BRK1 isoform 2 (UniProt Q8WUW1), the log2 fold change in test [1] is inactive: 0; in test [2] it was inactive: -0.043; in test [3], inactive: -0.011; in test [4], inactive: 0.019; in test [5], inactive: 0.141.
BIRC5 (UniProt O15392): the log2 fold change in test [1] is inactive: 0; in test [2], inactive: 0.102; in test [3], inactive: 0.023; in test [4], inactive: -0.04; in test [5], inactive: 0.016.
Consider BCAP29 isoform 2 (UniProt Q9UHQ4), for which the log2 fold change in test [1] is inactive: 0.042; in test [2] it was inactive: -0.066; in test [3], inactive: 0; in test [4], inactive: -0.005; in test [5], inactive: -0.033.
Take BAP1 (UniProt Q92560): the log2 fold change is inactive: 0.05 in test [1]; inactive: 0.074 in test [2]; inactive: 0.011 in test [3]; inactive: 0.043 in test [4]; inactive: -0.034 in test [5].
For BRCA1 isoform 7 (UniProt P38398), the log2 fold change was inactive: -0.052 in test [1]; inactive: 0.052 in test [2]; inactive: 0.023 in test [3]; inactive: 0.009 in test [4]; inactive: 0.03 in test [5].
The like results for BCR (UniProt P11274) were, in that order, inactive: -0.03, inactive: 0.005, inactive: -0.014, inactive: 0.007 and inactive: 0.027.
In the case of BRIX1 (UniProt Q8TDN6), the log2 fold change in test [1] was inactive: 0.022; in test [2], inactive: -0.023; in test [3], inactive: 0.017; in test [4], inactive: -0.032; in test [5] it was inactive: 0.022.
As for BTK isoform 2 (UniProt Q06187), the log2 fold change in test [1] was inactive: -0.049; in test [2] it was inactive: -0.033; in test [3], inactive: 0.012; in test [4], inactive: -0.002; in test [5], inactive: -0.064.
The like results for BET1 (UniProt O15155) were, in that order, inactive: -0.053, inactive: 0.013, inactive: 0.032, inactive: 0.038 and inactive: 0.009.
Consider BID isoform 2 (UniProt P55957), for which the log2 fold change in test [1] was inactive: 0.026; in test [2], inactive: -0.076; in test [3] it was inactive: 0.004; in test [4], inactive: -0.075; in test [5], inactive: -0.028.
For BPNT1 (UniProt O95861), the log2 fold change in test [1] is inactive: 0.033; in test [2], inactive: -0.008; in test [3], inactive: -0.009; in test [4], inactive: 0.01; in test [5], inactive: -0.033.
Taken in the same sequence, the figures for BCKDK (UniProt O14874) were inactive: -0.036, inactive: -0.007, inactive: -0.037, inactive: 0.016 and inactive: 0.012.
